Consider one molecule from patent publication US6958321B2, “Isolation, characterization, cloning and use of a mushroom lectin” (The Regents of the University of Michigan, priority 2001, dated 2005).

Assay [1] concerns the target Pigeon ovalbumin (pigeon). As to the kind of experiment: affinity chromatography on MOA-Sepharose 4B.
Assay [2] addresses Pigeon ovalbumin (pigeon). As to the kind of experiment: affinity chromatography on MOA-Sepharose 4B, PBS wash then elution with 20 mM 1,3-diaminopropane in 0.15 M NaCl, A280 of 1 ml fractions.

Results are given in words; binding and its absence hold for the method and conditions named.

B1: Intact native Marasmius oreades agglutinin (MOA) prepared by the method of Example 2 (other)
chain: MSLRRGIYHIENAGVPSAIDLKDGSSSDGTPIVGWQFTPDTINWHQLWLAEPIPNVADTFTLCNLFSGTYMDLYNGSSEAGTAVNGWQGTAFTTNPHQLWTIKKSSDGTSYKIQNYGSKTFVDLVNGDSSDGAKIAGWTGTWDEGNPHQKWYFNRMSVSSAEAQAAIARNPHIHGTYRGYILDGEYLVLPNATFTQIWKDSGLPGSKWREQIYDCDDFAIAMKAAVGKWGADSWKANGFAIFCGVMLGVNKAGDAAHAYNFTLTKDHADIVFFEPQNGGYLNDIGYDSYMAFY
modifications: blocked N-terminus (possibly N-acetyl)
notes: also called native MOA; immobilized MOA
Take B1: the binding result in assay [1] and in assay [2] was “no binding” in each case.
